Values quoted from earlier work in patent publication US12377072B2, “Modulators of GTPases and their use” (priority 2010, dated 2025).

Details: 10 mg/kg, within 3 h; cited from earlier work

COc1ccc2cc([C@H](C)C(=O)O)ccc2c1 [S-naproxen]
plasma concentration: ~94 µM
